# From publication PMC12204631
# These are yes or no findings as the source states them, for the method shown. Binding seen in cells or lysates may run through a third protein. A yes stands for co-enrichment or nearness to the bait. Other partners may have been found. Sequences can lack the tags named with a protein.
# T1: 6HIS-HA-JHD2 (S. cerevisiae) (UniProt P47156)
# T1 sequence: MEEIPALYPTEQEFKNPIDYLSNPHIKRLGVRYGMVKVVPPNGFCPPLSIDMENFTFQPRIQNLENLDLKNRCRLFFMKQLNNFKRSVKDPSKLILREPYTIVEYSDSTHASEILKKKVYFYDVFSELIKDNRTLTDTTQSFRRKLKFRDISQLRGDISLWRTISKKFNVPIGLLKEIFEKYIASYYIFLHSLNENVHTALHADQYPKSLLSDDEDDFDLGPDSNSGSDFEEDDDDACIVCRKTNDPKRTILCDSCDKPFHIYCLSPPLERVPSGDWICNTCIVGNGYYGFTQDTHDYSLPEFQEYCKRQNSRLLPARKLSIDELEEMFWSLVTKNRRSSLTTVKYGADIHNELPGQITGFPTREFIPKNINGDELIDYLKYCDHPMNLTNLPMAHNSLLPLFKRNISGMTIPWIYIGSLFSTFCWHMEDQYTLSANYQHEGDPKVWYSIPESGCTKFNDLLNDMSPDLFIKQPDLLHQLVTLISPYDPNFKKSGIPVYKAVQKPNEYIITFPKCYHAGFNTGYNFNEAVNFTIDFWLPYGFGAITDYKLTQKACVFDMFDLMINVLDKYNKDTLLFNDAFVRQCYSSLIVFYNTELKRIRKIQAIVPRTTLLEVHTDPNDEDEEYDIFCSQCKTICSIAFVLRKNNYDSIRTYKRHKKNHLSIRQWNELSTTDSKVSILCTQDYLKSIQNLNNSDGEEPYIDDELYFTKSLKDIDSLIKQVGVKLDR
# B1: HSL7 (protein, UniProt P38274 1-827)
# chain: MHSNVFVGVKPGFNHKQHSKKSRFLENVSSHSPELPSNYDYVLLPITTPRYKEIVGQVFKDFQRQSIQNWKPLQIPEPQLQDICIPPFNVKKLDNDDTPSYIGLLSSWLELESRDPNVRDLGLKVLLNECKYARFVGINKLILAPPRDLSNLQLYGQMIYRLLQNRIVFAAPALTISISLPLYEDSDPLATWELWNTVRKQCEYHPSLTISLALPRTRTPSYVLNRWLAEPVSCLLVSSSIFASNQYDYPVLHKFNQNLILKFQKVNGDSQILGNELCVILHGMEKYANNVKGGESAYLEYINYLLKKGDKVLNSNSNHQFLLQEDSRIMPPLKPHSDNLLNSTYLTFEKDLVKYDLYESAILEALQDLAPRASAKRPLVILVAGAGRGPLVDRTFKIISMLFMDSKVSIIAIEKNPQAYLYLQKRNFDCWDNRVKLIKEDMTKWQINEPSEKRIQIDLCISELLGSFGCNELSPECLWSIEKYHSHNDTIFIPRSYSSYIAPISSPLFYQKLSQTNRSLEAPWIVHRVPYCILSSRVNEVWRFEHPMAQKDTVQDEDDFTVEFSQSSLNEFKIKHRGEIHGFIGFFSANLYNNIFLSTLPNDSTVRLKFSEETLMNTRREENLIKKCDHTPNMTSWSPIIFPLKQPISFIDDSELSVLMSRIHSDTEQKVWYEWSLESFIYLMLSNYTSAVTAASMTIPRSIVTDDTKTLAHNRHYSATTNQKLDNQIDLDQDIENEEEQGFLSNLETGWQSVQDIHGLSETAKPDHLDSINKPMFDLKSTKALEPSNELPRHEDLEEDVPEVHVRVKTSVSTLHNVCGRAFSLPL
# B2: MTQ2 (protein, UniProt Q03920 1-221)
# chain: MLPTPYVKCDYDKVYEPAEDSFLILDCLEKEHDFLKQKFGNRLAIVCEIGSGSGIVTTFLMQNKIIPQENSIHLAVDINPWALEATLDTAKLNSCKSSFLEVIQADLNSSIRNNQVDVLIFNPPYVPAECVPDVPGSREEADQWLDLALLGGKDGMAITDKLLRQLEQILSPDGVAYILFCARNKPKEVIKRFVDTYKWNVKLIETRKAGWEVLSVYSFTR
# B3: NNT1 (protein, UniProt Q05874 1-261)
# chain: MSDIESLGEAAGLFEEPEDFLPPPPKPHFAEYQRSHITKESKSDVKDIKLRLVGTSPLWGHLLWNAGIYTANHLDSHPELIKGKTVLELGAAAALPSVICALNGAQMVVSTDYPDPDLMQNIDYNIKSNVPEDFNNVSTEGYIWGNDYSPLLAHIEKIGNNNGKFDLIILSDLVFNHTEHHKLLQTTKDLLAEKGQALVVFSPHRPKLLEKDLEFFELAKNEFHLVPQLIEMVNWKPMFDEDEETIEVRSRVYAYYLTHEK
# B4: OMS1 (protein, UniProt Q06668 40-471)
# chain: NSSHIDDDKSKKKLKNVFQMNSNRVIRKQKTKEELAKERFEEQLRSPNRFVRWGAIARSEKFSKGMTKYMIGAYVIFLIYGLFFTKKLFAKDKELERLLKKQEEGNANEYEALRIKELKGKLRRRDELKLEEYKKMQEEGIENFDDIRVQNFDQNKLNEQILPARDTTNFYQEKANEYDKAINMEERVIFLGKRRKWLMKHCQGDVLEVSCGTGRNIKYLDMSRINSITFLDSSENMMEITHKKFREKFPKYKKVAFVVGKAENLVDLAEKGKPSLENEKENQVKYDTIVEAFGLCSHEDPVKALNNFGKLLKPDGRIILLEHGRGQYDFINKILDNRAERRLNTWGCRWNLDLGEVLDDSDLELVEEKRTHLGTTWCIVAKRKGDVKKKDELGFVEKYLQSSIRKRMESFEKKDDMASKKELEPVPPVSKS
# B5: BIK1 (protein, UniProt P11709 1-440)
# chain: MDRYQRKIGCFIQIPNLGRGQLKYVGPVDTKAGMFAGVDLLANIGKNDGSFMGKKYFQTEYPQSGLFIQLQKVASLIEKASISQTSRRTTMEPLSIPKNRSIVRLTNQFSPMDDPKSPTPMRSFRITSRHSGNQQSMDQEASDHHQQQEFGYDNREDRMEVDSILSSDRKANHNTTSDWKPDNGHMNDLNSSEVTIELREAQLTIEKLQRKQLHYKRLLDDQRMVLEEVQPTFDRYEATIQEREKEIDHLKQQLELERRQQAKQKQFFDAENEQLLAVVSQLHEEIKENEERNLSHNQPTGANEDVELLKKQLEQLRNIEDQFELHKTKWAKEREQLKMHNDSLSKEYQNLSKELFLTKPQDSSSEEVASLTKKLEEANEKIKQLEQAQAQTAVESLPIFDPPAPVDTTAGRQQWCEHCDTMGHNTAECPHHNPDNQQFF
# B6: RKM1 (protein, UniProt Q08961 1-583)
# chain: MSSDALKALLQWGASFGVIVPEELKFLYTDLKGIICVCEKDIDNPSIKIPPEIVISRNLPMKFFGLSESTKNINGWLKLFFAKIKFDRDNDTIVDNVRVNDKFKPYLDALPSRLNSPLVWNPSELKRLSSTNIGNSIHEKFEGIFKEWFELVSSSDMFDLERVADDVQTFHNLDELTYEALYEKILKITELQRPTIWYSFPAFLWSHLIFISRAFPEYVLNRNCPDNSIVLLPIVDLLNHDYRSKVKWYPENGWFCYEKIGTASQSRELSNNYGGKGNEELLSGYGFVLEDNIFDSVALKVKLPLDVVSTILETEPSLKLPLLSDYTTYAFENKDCVQQEKKATRSATDYINGVTYFINIQNEQCLEPLLDLFTYLSKAEEEDLHDLRARLQGIQMLRNALQSKLNSITGPPATDDSYAIDPYRVYCADVYTKGQKQILKEALTRLKKLEKTMLSENKHQLLTMSKILKNDPAFAETELPSLFSNEDGEEVIFESTYDLLILWILLKTKKNSYPTKYEWVGQQYTNFKQTAYISDDAKAFHTAYFEKQDDVDLAEVDHAIQFVVDNSFTRTSSTTEETILVRK
# B7: RKM3 (protein, UniProt P38222 1-552)
# chain: MSVTFKDDVHRILKFVANCNGRFEDSKCDIRESPLGGLGVFAKTDIAEGESILTLNKSSIFSASNSSIANLLCDSSIDGMLALNIAFIYETTVFRNSSHWYPFLRTIRIRDDEGHLNLPPSFWHADAKRLLKGTSFDTLFDSLAPEEEIMEGFEIAVDLAHKWNDEFGLEIPKGFLDVSEENHEEDYNLKLEKFISVAYTLSSRGFEIDAYHETALVPIADLFNHHVSDPDLKFVSLYDVCDKCGEPDMCKHLIAEEYLEAENLDKNMPKVASMETRVIDEDLIKSLENDLEKEYSNVTANIEDDDGGIENPDECVDLVLKNDVAQGQEIFNSYGELSNVFLLARYGFTVPENQYDIVHLGPDFMKILKKEEKYQEKVKWWSQVGHGLFSAWYAQMRQEDEEDEDGQAKSDNLSDDIESEEEEEEEEGDDSLESWLSQLYIDSSGEPSPSTWALANLLTLTAVQWESLFSKKATPHISDSIVNEEKLPFLAKKDNPHSKKLLSNLLKEKQLPCIKGDNSSKITSATKSMLQNARTLVQSEHNILDRCLKRLS
# B8: RKM4 (protein, UniProt Q12504 1-494)
# chain: MDDFSRDTENFVCWLKTTAEIEVSPKIEIKDLCCDNQGRAVVATQKIKKDETLFKIPRSSVLSVTTSQLIKDYPSLKDKFLNETGSWEGLIICILYEMEVLQERSRWAPYFKVWNKPSDMNALIFWDDNELQLLKPSLVLERIGKKEAKEMHERIIKSIKQIGGEFSRVATSFEFDNFAYIASIILSYSFDLEMQDSSVNENEEEETSEEELENERYLKSMIPLADMLNADTSKCNANLTYDSNCLKMVALRDIEKNEQVYNIYGEHPNSELLRRYGYVEWDGSKYDFGEVLLENIVEALKETFETNTEFLDRCIDILRNNANIQEFLEGEEIVLDSYDCYNNGELLPQLILLVQILTILCQIPGLCKLDIKAMERQVERIVKKCLQLIEGARATTNCSATWKRCIMKRLADYPIKKCVSIEKPSKGNSLTREELRDVMARRVLKSEIDSLQVCEETIDKNYKVIPDEKLLTNILKRKLTEEEKSSVKRPCVKK
# B9: RMT2 (protein, UniProt Q03305 1-412)
# chain: MSELHALLTFPERPISQSYYVPKLQHFLKSGIPATYTLEQVAAFEHEEKNRNGDKEFRESTDDNKTSNTTPLHVLARSLPLDIKDEELQVVMDMMNILFEYGAGWNFIDYEDKTVGDLFLERNQSRESPLYRRLVEAGVSAELLLRKLNGGDVEFLDTDELIGIEPEESVQTAVDGQKEESVGSDDDATAANQQVYLKTELEYKDDALITKENKDGVMMDWETKIMELASETLFPDPEATNSATILNIGFGMGIIDTFIQARKPYRHYICEAHPDVLAKMKMDGWYEKDNVVILEGRWQDTLNNLLDKGEVFFDGIYYDTFSEHYQDILDLYDVVVGLIKPEGVFSFFNGLGADRSLCYDVYKEIVEIDVATYGMKCDYTRYSLDEQLPDWNDVKRSYFNCNYYYHPRITFA
# B10: SEE1 (protein, UniProt P40516 1-229)
# chain: MQGTADLSTSKLGTKKYWDELYALELENFRRNPQDTGDCWFSDSDAEQKMIDFLVDNIGAYRISENASVVDLGTGNGHMLFELHQTEFQGKLVGIDYSEESVKLASNIAEATGVDNFISFQQADIFSGDWKPGKYDIVLDKGTLDAISLSGMKINGKLDVVDVYAGVVERILKKDGIFLITSCNFTQDELVKIIETDNLKMWKTIKYPVFQFGGVQGATICSVAFVKQN
# Target: T1, 6HIS-HA-JHD2 (S. cerevisiae)
# Assay: affinity purification with mass spectrometry; whole cell extracts of a wild-type strain with 6HIS-HA-JHD2 induced from the GAL1 promoter for 6 hours; Ni-NTA agarose and anti-HA agarose beads at 4°C for 24 hours; proteins found with the empty vector strain excluded
row,Binder,binding
1,B1,binds
2,B2,binds
3,B3,binds
4,B4,binds
5,B5,binds
6,B6,binds
7,B7,binds
8,B8,binds
9,B9,binds
10,B10,binds
